Test results reported in patent US20190111164A1.

Molecular target: dBSM (bovine)
Test: ELISA on model antigens (Tn-PAA, sTN-PAA, Tn-cluster, dBSM)

binding: binds
B1: 2F3 variant #6 (antibody, IgG1, V domains shown)
VH: QVQLLESGGGLVQPGGSLRLSCAASGFTFDSYAMSWVRQAPGKGLEWVSAISGSGASTYYADSVKGRFSISRDNSKNTLYLQMNSLRAEDTAVYYCAIRREYSGYAPFDYWGQGTLVIVSS
VL: DIVMTQTPSSLSASVGDRVTITCRASQGISSWLAWYQQKPEKAPRSLIYAASSLQSGVPSRFSGSGSGTDFTLTISSLQPEDFATYYCQQYISYPYTFGQGTKLEIK

No constants are given. Whether binding was seen depends on the method and setting. A result given as binding can be weak or reduced; the word gives no strength.
